Experimental data published in PMC4746701.
No constants are given. Whether binding was seen depends on the method and setting. For some of these results: In cells and extracts the contact can be indirect. For some of these results: Where a sequence is shown, tags or fusion partners need not be part of it. Blank lines part the entries; values can stand above or below the binder they belong to.

What was measured:
[1] = target: SEL1L^348–497 (C-terminal deletion mutant of SEL1L^cent lacking SLR motif 9) (Mus musculus) (UniProt Q9Z2G6); experiment: SEC; Superdex 200; 25 mM Tris, 150 mM NaCl, 5 mM DTT, pH 7.5; both purified
[2] = target: SEL1L^348–497 (C-terminal deletion mutant of SEL1L^cent lacking SLR motif 9) (Mus musculus) (UniProt Q9Z2G6); experiment: AUC; analytical ultracentrifugation of purified protein (Supplementary Fig. 2C); both purified
[3] = target: full-length mouse SEL1L (SEL1L-HA and SEL1L-FLAG) (mouse) (UniProt Q9Z2G6); experiment: co-IP; HEK293T co-transfected; lysis in 50 mM Tris pH 7.4, 150 mM NaCl, 0.1% Triton X-100, 5% glycerol; IP anti-FLAG and blot anti-HA (Fig. 4A) or IP anti-HA and blot anti-FLAG (Fig. 4D)
[4] = target: SEL1L^cent triple point mutant (I515A, L516A, Y519A) (Mus musculus) (UniProt Q9Z2G6); experiment: SEC; Superdex 200; 25 mM Tris, 150 mM NaCl, 5 mM DTT, pH 7.5; both purified
[5] = target: SEL1L^cent L521A (Mus musculus) (UniProt Q9Z2G6); experiment: as above
[6] = target: SEL1L^cent G512K/G513K double mutant (Mus musculus) (UniProt Q9Z2G6); experiment: as above

binding [1]: no binding
binding [2]: no binding
B1: SEL1L^348–497 (C-terminal deletion mutant of SEL1L^cent lacking SLR motif 9) (domain or fragment, UniProt Q9Z2G6 348-497)
chain: NSGMLEEDLIQYYQFLAEKGDVQAQVGLGQLHLHGGRGVEQNHQRAFDYFNLAANAGNSHAMAFLGKMYSEGSDIVPQSNETALHYFKKAADMGNPVGQSGLGMAYLYGRGVQVNYDLALKYFQKAAEQGWVDGQLQLGSMYYNGIGVKR

binding [3]: no binding
B2: SEL1L^348–497 (SLR motif 9 deletion) expressed in HEK293T behind the SEL1L signal peptide (no KDEL) (domain or fragment, UniProt Q9Z2G6 348-497)
chain: NSGMLEEDLIQYYQFLAEKGDVQAQVGLGQLHLHGGRGVEQNHQRAFDYFNLAANAGNSHAMAFLGKMYSEGSDIVPQSNETALHYFKKAADMGNPVGQSGLGMAYLYGRGVQVNYDLALKYFQKAAEQGWVDGQLQLGSMYYNGIGVKR

binding [3]: no binding
B3: SEL1L^348–497-KDEL (SEL1L^348–497-FLAG-KDEL) (domain or fragment, UniProt Q9Z2G6 348-497)
chain: NSGMLEEDLIQYYQFLAEKGDVQAQVGLGQLHLHGGRGVEQNHQRAFDYFNLAANAGNSHAMAFLGKMYSEGSDIVPQSNETALHYFKKAADMGNPVGQSGLGMAYLYGRGVQVNYDLALKYFQKAAEQGWVDGQLQLGSMYYNGIGVKRKDEL

binding [4]: no binding
B4: SEL1L^cent triple point mutant (I515A, L516A, Y519A) (domain or fragment, UniProt Q9Z2G6 348-533)
chain: NSGMLEEDLIQYYQFLAEKGDVQAQVGLGQLHLHGGRGVEQNHQRAFDYFNLAANAGNSHAMAFLGKMYSEGSDIVPQSNETALHYFKKAADMGNPVGQSGLGMAYLYGRGVQVNYDLALKYFQKAAEQGWVDGQLQLGSMYYNGIGVKRDYKQALKYFNLASQGGHAAAFANLAQMHASGTGVMR

binding [5]: no binding
B5: SEL1L^cent L521A (domain or fragment, UniProt Q9Z2G6 348-533)
chain: NSGMLEEDLIQYYQFLAEKGDVQAQVGLGQLHLHGGRGVEQNHQRAFDYFNLAANAGNSHAMAFLGKMYSEGSDIVPQSNETALHYFKKAADMGNPVGQSGLGMAYLYGRGVQVNYDLALKYFQKAAEQGWVDGQLQLGSMYYNGIGVKRDYKQALKYFNLASQGGHILAFYNAAQMHASGTGVMR

binding [6]: no binding
B6: SEL1L^cent G512K/G513K double mutant (domain or fragment, UniProt Q9Z2G6 348-533)
chain: NSGMLEEDLIQYYQFLAEKGDVQAQVGLGQLHLHGGRGVEQNHQRAFDYFNLAANAGNSHAMAFLGKMYSEGSDIVPQSNETALHYFKKAADMGNPVGQSGLGMAYLYGRGVQVNYDLALKYFQKAAEQGWVDGQLQLGSMYYNGIGVKRDYKQALKYFNLASQKKHILAFYNLAQMHASGTGVMR
